Consider seven molecules from paper PMC4769169 (eLife, 2016).

Protein sequences, listed by entry. Tags and fused reporters are not part of them. Lines headed by an entry give the natural chain unless they say otherwise; changes in a name come on top.
UniProt P61006: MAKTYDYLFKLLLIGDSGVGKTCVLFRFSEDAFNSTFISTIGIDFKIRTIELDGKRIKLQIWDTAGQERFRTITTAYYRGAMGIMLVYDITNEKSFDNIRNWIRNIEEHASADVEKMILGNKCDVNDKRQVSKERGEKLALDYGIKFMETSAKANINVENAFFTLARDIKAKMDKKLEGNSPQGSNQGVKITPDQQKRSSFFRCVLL
UniProt P32019: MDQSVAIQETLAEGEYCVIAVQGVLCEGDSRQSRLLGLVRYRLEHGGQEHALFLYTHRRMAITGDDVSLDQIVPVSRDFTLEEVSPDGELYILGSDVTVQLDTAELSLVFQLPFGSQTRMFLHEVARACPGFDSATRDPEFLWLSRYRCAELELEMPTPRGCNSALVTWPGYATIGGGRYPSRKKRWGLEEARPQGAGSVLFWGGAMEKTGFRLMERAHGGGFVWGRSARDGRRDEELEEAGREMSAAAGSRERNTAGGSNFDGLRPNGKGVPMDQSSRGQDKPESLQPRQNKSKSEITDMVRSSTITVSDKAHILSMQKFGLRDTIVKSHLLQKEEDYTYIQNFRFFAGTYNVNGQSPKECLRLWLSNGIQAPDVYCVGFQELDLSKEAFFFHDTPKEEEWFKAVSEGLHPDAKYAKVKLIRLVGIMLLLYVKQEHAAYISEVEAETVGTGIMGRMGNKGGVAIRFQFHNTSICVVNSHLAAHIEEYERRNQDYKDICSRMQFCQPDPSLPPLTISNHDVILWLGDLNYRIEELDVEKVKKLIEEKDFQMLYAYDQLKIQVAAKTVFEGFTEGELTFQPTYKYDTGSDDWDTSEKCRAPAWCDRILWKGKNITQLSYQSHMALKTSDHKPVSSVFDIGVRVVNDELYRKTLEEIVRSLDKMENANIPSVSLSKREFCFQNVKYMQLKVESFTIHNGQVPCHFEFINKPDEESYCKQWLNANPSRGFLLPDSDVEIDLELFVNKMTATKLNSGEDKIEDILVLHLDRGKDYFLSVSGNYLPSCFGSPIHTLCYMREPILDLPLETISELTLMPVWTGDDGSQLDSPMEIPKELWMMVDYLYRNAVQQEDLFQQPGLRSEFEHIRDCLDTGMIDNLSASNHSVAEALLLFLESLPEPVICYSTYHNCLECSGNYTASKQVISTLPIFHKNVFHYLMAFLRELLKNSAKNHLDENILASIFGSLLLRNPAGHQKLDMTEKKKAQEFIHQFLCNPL

This assay addresses GFP-Rab8a (T72A) (UniProt P61006). The assay is described as follows: affinity purification with mass spectrometry; GFP-Rab8a T72A or T72E transiently expressed in HEK293; lysis in NP-40 extraction buffer; lysates incubated with GFP beads (Chromotek) for 2 hr; on-bead digestion; n=4.

No constants are given. Whether binding was seen depends on the method and setting. Binding seen in cells or lysates may run through a third protein. These calls come from enrichment with a bait or labelling near it, and not all partners need be listed.

Turning to INPP5B (from UniProt P32019 1-993), the binding entry was “binds”.

B1: RabGGTA (protein, UniProt Q92696 1-567)
chain: MHGRLKVKTSEEQAEAKRLEREQKLKLYQSATQAVFQKRQAGELDESVLELTSQILGANPDFATLWNCRREVLQQLETQKSPEELAALVKAELGFLESCLRVNPKSYGTWHHRCWLLGRLPEPNWTRELELCARFLEVDERNFHCWDYRRFVATQAAVPPAEELAFTDSLITRNFSNYSSWHYRSCLLPQLHPQPDSGPQGRLPEDVLLKELELVQNAFFTDPNDQSAWFYHRWLLGRADPQDALRCLHVSRDEACLTVSFSRPLLVGSRMEILLLMVDDSPLIVEWRTPDGRNRPSHVWLCDLPAASLNDQLPQHTFRVIWTAGDVQKECVLLKGRQEGWCRDSTTDEQLFRCELSVEKSTVLQSELESCKELQELEPENKWCLLTIILLMRALDPLLYEKETLQYFQTLKAVDPMRATYLDDLRSKFLLENSVLKMEYAEVRVLHLAHKDLTVLCHLEQLLLVTHLDLSHNRLRTLPPALAALRCLEVLQASDNAIESLDGVTNLPRLQELLLCNNRLQQPAVLQPLASCPRLVLLNLQGNPLCQAVGILEQLAELLPSVSSVLT
In the case of B1, the binding result was “binds”.

B2: CHML (protein, UniProt P26374 1-656)
chain: MADNLPTEFDVVIIGTGLPESILAAACSRSGQRVLHIDSRSYYGGNWASFSFSGLLSWLKEYQQNNDIGEESTVVWQDLIHETEEAITLRKKDETIQHTEAFCYASQDMEDNVEEIGALQKNPSLGVSNTFTEVLDSALPEESQLSYFNSDEMPAKHTQKSDTEISLEVTDVEESVEKEKYCGDKTCMHTVSDKDGDKDESKSTVEDKADEPIRNRITYSQIVKEGRRFNIDLVSKLLYSQGLLIDLLIKSDVSRYVEFKNVTRILAFREGKVEQVPCSRADVFNSKELTMVEKRMLMKFLTFCLEYEQHPDEYQAFRQCSFSEYLKTKKLTPNLQHFVLHSIAMTSESSCTTIDGLNATKNFLQCLGRFGNTPFLFPLYGQGEIPQGFCRMCAVFGGIYCLRHKVQCFVVDKESGRCKAIIDHFGQRINAKYFIVEDSYLSEETCSNVQYKQISRAVLITDQSILKTDLDQQTSILIVPPAEPGACAVRVTELCSSTMTCMKDTYLVHLTCSSSKTAREDLESVVKKLFTPYTETEINEEELTKPRLLWALYFNMRDSSGISRSSYNGLPSNVYVCSGPDCGLGNEHAVKQAETLFQEIFPTEEFCPPPPNPEDIIFDGDDKQPEAPGTNNVVMAKLESSEESKNLESPEKHLQN
B2: the binding entry is given as “binds”.

B3: CHM (protein, UniProt P24386 1-653)
chain: MADTLPSEFDVIVIGTGLPESIIAAACSRSGRRVLHVDSRSYYGGNWASFSFSGLLSWLKEYQENSDIVSDSPVWQDQILENEEAIALSRKDKTIQHVEVFCYASQDLHEDVEEAGALQKNHALVTSANSTEAADSAFLPTEDESLSTMSCEMLTEQTPSSDPENALEVNGAEVTGEKENHCDDKTCVPSTSAEDMSENVPIAEDTTEQPKKNRITYSQIIKEGRRFNIDLVSKLLYSRGLLIDLLIKSNVSRYAEFKNITRILAFREGRVEQVPCSRADVFNSKQLTMVEKRMLMKFLTFCMEYEKYPDEYKGYEEITFYEYLKTQKLTPNLQYIVMHSIAMTSETASSTIDGLKATKNFLHCLGRYGNTPFLFPLYGQGELPQCFCRMCAVFGGIYCLRHSVQCLVVDKESRKCKAIIDQFGQRIISEHFLVEDSYFPENMCSRVQYRQISRAVLITDRSVLKTDSDQQISILTVPAEEPGTFAVRVIELCSSTMTCMKGTYLVHLTCTSSKTAREDLESVVQKLFVPYTEMEIENEQVEKPRILWALYFNMRDSSDISRSCYNDLPSNVYVCSGPDCGLGNDNAVKQAETLFQEICPNEDFCPPPPNPEDIILDGDSLQPEASESSAIPEANSETFKESTNLGNLEESSE
With B3, the binding entry was “binds”.

B4: Rabin8 (Rab3IP), endogenous (protein, UniProt Q96QF0 1-476)
chain: MGLKKMKGLSYDEAFAMANDPLEGFHEVNLASPTSPDLLGVYESGTQEQTTSPSVIYRPHPSALSSVPIQANALDVSELPTQPVYSSPRRLNCAEISSISFHVTDPAPCSTSGVTAGLTKLTTRKDNYNAEREFLQGATITEACDGSDDIFGLSTDSLSRLRSPSVLEVREKGYERLKEELAKAQRELKLKDEECERLSKVRDQLGQELEELTASLFEEAHKMVREANIKQATAEKQLKEAQGKIDVLQAEVAALKTLVLSSSPTSPTQEPLPGGKTPFKKGHTRNKSTSSAMSGSHQDLSVIQPIVKDCKEADLSLYNEFRLWKDEPTMDRTCPFLDKIYQEDIFPCLTFSKSELASAVLEAVENNTLSIEPVGLQPIRFVKASAVECGGPKKCALTGQSKSCKHRIKLGDSSNYYYISPFCRYRITSVCNFFTYIRYIQQGLVKQQDVDQMFWEVMQLRKEMSLAKLGYFKEEL
B4: the binding entry is “binds”.

B5: TBC1D15 (protein, UniProt Q8TC07 1-691)
chain: MAAAGVVSGKIIYEQEGVYIHSSCGKTNDQDGLISGILRVLEKDAEVIVDWRPLDDALDSSSILYARKDSSSVVEWTQAPKERGHRGSEHLNSYEAEWDMVNTVSFKRKPHTNGDAPSHRNGKSKWSFLFSLTDLKSIKQNKEGMGWSYLVFCLKDDVVLPALHFHQGDSKLLIESLEKYVVLCESPQDKRTLLVNCQNKSLSQSFENLLDEPAYGLIQAGLLDRRKLLWAIHHWKKIKKDPYTATMIGFSKVTNYIFDSLRGSDPSTHQRPPSEMADFLSDAIPGLKINQQEEPGFEVITRIDLGERPVVQRREPVSLEEWTKNIDSEGRILNVDNMKQMIFRGGLSHALRKQAWKFLLGYFPWDSTKEERTQLQKQKTDEYFRMKLQWKSISQEQEKRNSRLRDYRSLIEKDVNRTDRTNKFYEGQDNPGLILLHDILMTYCMYDFDLGYVQGMSDLLSPLLYVMENEVDAFWCFASYMDQMHQNFEEQMQGMKTQLIQLSTLLRLLDSGFCSYLESQDSGYLYFCFRWLLIRFKREFSFLDILRLWEVMWTELPCTNFHLLLCCAILESEKQQIMEKHYGFNEILKHINELSMKIDVEDILCKAEAISLQMVKCKELPQAVCEILGLQGSEVTTPDSDVGEDENVVMTPCPTSAFQSNALPTLSASGARNDSPTQIPVSSDVCRLTPA
With B5, the binding result is “binds”.

B6: RabGGTB (protein, UniProt P53611 1-331)
chain: MGTPQKDVIIKSDAPDTLLLEKHADYIASYGSKKDDYEYCMSEYLRMSGIYWGLTVMDLMGQLHRMNREEILAFIKSCQHECGGISASIGHDPHLLYTLSAVQILTLYDSINVIDVNKVVEYVKGLQKEDGSFAGDIWGEIDTRFSFCAVATLALLGKLDAINVEKAIEFVLSCMNFDGGFGCRPGSESHAGQIYCCTGFLAITSQLHQVNSDLLGWWLCERQLPSGGLNGRPEKLPDVCYSWWVLASLKIIGRLHWIDREKLRNFILACQDEETGGFADRPGDMVDPFHTLFGIAGLSLLGEEQIKPVNPVFCMPEEVLQRVNVQPELVS
Take B6: the binding result is reported as “binds”.
